Test results: publication PMC4943857
No constants are given. Whether binding was seen depends on the method and setting. Binding seen in cells or lysates may run through a third protein. Some results given as binding are weak or reduced against the parent protein; the word gives no strength.

Sequences of proteins named here, by UniProt entry; tags and fusion partners are left off.
UniProt A1Z9J1: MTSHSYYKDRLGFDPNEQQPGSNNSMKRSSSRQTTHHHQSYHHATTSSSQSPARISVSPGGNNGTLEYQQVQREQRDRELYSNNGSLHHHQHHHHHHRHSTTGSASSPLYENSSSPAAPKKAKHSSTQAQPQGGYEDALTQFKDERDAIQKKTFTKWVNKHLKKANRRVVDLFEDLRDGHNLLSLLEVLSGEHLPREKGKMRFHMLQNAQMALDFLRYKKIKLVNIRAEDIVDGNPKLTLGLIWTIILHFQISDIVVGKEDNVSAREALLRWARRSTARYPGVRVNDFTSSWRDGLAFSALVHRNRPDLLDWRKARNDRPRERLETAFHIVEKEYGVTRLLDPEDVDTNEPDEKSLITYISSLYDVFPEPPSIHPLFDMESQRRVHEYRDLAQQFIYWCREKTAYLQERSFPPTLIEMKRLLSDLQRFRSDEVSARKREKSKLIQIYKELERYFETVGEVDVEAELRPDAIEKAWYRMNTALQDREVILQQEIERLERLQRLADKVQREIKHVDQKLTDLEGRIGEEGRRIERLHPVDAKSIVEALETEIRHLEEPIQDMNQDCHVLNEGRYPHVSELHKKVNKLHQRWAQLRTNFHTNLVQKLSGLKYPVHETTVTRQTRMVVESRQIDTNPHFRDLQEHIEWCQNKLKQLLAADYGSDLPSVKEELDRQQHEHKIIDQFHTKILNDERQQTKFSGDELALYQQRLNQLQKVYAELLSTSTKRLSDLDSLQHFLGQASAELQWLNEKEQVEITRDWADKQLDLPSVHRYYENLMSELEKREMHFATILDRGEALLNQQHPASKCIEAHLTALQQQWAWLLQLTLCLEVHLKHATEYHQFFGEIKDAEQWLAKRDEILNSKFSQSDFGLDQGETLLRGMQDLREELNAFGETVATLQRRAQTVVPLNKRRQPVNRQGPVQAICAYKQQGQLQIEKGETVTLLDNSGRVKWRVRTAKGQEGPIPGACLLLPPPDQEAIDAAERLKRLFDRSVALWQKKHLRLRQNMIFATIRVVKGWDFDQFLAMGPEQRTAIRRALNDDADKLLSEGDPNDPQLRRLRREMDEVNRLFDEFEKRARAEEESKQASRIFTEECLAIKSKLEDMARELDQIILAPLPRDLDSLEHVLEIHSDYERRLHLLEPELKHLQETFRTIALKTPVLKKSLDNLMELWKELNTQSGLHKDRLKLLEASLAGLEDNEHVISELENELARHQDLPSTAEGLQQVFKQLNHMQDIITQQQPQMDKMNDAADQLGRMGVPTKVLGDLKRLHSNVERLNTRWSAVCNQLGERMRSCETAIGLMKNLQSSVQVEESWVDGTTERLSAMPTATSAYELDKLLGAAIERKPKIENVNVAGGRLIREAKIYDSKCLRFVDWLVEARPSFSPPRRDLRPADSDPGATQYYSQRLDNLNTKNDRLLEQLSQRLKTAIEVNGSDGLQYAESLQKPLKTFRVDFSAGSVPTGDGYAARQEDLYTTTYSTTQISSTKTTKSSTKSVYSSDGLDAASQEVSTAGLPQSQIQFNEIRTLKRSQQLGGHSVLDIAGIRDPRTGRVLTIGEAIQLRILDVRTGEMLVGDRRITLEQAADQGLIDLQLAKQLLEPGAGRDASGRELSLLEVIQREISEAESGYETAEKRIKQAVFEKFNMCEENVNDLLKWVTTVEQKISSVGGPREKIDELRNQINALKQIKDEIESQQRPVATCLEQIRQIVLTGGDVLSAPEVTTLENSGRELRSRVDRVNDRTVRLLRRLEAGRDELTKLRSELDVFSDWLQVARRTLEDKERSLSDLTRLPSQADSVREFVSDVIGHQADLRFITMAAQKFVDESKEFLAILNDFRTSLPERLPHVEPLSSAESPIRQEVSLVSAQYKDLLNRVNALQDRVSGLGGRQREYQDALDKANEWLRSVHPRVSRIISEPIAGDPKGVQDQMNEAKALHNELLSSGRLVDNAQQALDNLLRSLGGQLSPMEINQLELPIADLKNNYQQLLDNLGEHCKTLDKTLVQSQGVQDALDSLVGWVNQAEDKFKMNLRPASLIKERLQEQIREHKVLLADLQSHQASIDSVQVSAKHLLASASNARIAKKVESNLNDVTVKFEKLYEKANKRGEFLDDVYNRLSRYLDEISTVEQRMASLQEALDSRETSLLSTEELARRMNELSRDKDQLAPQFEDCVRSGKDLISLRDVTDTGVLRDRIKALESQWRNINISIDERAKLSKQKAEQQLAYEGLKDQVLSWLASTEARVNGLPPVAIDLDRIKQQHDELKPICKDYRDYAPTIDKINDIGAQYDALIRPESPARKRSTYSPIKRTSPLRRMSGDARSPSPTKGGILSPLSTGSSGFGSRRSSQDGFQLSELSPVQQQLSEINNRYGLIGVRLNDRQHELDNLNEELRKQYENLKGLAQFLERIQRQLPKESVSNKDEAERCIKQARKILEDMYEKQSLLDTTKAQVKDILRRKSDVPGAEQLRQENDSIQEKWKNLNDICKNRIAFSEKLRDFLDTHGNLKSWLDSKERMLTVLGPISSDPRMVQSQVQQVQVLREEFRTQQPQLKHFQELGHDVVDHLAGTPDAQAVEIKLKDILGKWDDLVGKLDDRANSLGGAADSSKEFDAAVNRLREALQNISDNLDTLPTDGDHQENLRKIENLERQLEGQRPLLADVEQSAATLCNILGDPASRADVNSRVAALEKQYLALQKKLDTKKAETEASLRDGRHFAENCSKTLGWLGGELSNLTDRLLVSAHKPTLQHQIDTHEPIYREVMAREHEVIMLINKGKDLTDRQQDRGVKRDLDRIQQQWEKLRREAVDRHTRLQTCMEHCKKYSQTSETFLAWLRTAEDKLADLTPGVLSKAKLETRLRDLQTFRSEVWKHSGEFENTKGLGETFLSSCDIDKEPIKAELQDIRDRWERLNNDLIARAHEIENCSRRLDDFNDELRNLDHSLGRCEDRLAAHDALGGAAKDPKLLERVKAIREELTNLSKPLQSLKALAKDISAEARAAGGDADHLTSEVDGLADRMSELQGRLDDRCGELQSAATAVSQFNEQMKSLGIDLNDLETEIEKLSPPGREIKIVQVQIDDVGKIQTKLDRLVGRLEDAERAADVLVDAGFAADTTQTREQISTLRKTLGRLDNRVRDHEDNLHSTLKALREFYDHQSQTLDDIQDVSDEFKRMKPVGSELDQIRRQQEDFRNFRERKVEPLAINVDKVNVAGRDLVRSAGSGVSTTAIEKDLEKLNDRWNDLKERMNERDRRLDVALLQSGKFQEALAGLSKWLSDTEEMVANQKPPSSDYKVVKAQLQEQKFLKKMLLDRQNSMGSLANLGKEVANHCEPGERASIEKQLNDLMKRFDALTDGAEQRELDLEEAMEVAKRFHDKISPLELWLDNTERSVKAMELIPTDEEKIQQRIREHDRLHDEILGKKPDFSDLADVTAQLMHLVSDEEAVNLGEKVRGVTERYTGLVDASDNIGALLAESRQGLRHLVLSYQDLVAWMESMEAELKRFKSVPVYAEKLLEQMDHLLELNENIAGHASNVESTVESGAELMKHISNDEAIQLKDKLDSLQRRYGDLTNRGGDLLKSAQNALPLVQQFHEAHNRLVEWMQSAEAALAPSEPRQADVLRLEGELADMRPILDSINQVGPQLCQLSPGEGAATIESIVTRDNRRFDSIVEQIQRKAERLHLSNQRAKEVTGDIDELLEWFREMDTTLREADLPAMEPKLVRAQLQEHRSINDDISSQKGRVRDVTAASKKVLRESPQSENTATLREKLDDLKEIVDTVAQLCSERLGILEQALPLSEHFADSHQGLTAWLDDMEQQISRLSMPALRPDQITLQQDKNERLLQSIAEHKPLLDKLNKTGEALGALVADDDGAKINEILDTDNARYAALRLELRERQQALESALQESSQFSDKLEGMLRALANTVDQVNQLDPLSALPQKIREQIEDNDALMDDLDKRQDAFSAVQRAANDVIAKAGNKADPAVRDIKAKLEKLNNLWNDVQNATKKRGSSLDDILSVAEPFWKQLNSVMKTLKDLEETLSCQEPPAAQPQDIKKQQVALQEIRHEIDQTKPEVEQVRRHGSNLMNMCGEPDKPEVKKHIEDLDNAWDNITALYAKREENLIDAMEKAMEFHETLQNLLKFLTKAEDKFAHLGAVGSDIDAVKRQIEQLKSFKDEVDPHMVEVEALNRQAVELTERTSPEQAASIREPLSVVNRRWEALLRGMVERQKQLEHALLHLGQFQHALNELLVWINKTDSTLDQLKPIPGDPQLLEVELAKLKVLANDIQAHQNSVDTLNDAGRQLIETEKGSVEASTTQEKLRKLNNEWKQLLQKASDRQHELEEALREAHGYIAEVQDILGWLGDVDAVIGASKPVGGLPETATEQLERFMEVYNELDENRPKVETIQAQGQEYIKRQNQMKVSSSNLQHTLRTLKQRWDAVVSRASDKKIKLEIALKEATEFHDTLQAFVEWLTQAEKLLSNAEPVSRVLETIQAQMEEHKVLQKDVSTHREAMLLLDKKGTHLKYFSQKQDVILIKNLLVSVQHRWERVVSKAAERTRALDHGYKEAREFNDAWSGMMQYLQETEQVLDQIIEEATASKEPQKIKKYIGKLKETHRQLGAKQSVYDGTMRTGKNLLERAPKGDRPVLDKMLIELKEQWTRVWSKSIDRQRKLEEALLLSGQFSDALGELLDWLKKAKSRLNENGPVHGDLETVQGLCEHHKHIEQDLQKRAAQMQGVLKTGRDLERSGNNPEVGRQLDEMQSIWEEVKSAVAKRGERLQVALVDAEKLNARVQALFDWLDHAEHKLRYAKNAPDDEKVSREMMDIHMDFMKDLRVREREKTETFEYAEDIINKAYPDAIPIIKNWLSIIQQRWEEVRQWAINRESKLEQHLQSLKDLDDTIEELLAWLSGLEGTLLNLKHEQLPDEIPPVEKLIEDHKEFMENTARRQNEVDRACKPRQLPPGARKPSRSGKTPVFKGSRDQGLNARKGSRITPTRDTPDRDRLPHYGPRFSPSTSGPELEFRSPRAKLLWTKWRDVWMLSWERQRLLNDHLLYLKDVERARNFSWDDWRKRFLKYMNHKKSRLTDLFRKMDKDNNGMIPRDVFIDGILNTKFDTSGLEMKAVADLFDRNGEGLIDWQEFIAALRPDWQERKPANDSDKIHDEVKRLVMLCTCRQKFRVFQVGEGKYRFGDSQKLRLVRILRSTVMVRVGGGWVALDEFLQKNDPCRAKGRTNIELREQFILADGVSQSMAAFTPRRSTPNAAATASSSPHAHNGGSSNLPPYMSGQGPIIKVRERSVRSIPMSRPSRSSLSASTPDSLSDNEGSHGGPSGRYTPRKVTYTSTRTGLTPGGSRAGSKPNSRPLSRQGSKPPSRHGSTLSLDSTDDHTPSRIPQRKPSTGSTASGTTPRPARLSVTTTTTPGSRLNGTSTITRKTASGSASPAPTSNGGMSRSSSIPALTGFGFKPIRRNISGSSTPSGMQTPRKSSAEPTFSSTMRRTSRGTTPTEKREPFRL

Molecular target: Shot-YFP (Drosophila) (UniProt A1Z9J1)
Assay: co-IP; immunoprecipitation of the YFP-tagged protein (Shot-YFP or Katanin 80-YFP) from Drosophila ovary extracts; input and bound fractions blotted for Patronin

Patronin (from UniProt A1ZAU8 1-1630)
binding: binds
